Values of other authors, collected in US10507248B2, “Hydrophobic core carrier compositions for delivery of therapeutic agents, methods of making and using the same” (PharmaIn Corporation, priority 2005, dated 2019).
At least one structure is not confirmed: it was looked up by name or label, or the drawing left a doubt.

Sequences of proteins named here, by UniProt entry; tags and fusion partners are left off.
UniProt P20648, whole entry: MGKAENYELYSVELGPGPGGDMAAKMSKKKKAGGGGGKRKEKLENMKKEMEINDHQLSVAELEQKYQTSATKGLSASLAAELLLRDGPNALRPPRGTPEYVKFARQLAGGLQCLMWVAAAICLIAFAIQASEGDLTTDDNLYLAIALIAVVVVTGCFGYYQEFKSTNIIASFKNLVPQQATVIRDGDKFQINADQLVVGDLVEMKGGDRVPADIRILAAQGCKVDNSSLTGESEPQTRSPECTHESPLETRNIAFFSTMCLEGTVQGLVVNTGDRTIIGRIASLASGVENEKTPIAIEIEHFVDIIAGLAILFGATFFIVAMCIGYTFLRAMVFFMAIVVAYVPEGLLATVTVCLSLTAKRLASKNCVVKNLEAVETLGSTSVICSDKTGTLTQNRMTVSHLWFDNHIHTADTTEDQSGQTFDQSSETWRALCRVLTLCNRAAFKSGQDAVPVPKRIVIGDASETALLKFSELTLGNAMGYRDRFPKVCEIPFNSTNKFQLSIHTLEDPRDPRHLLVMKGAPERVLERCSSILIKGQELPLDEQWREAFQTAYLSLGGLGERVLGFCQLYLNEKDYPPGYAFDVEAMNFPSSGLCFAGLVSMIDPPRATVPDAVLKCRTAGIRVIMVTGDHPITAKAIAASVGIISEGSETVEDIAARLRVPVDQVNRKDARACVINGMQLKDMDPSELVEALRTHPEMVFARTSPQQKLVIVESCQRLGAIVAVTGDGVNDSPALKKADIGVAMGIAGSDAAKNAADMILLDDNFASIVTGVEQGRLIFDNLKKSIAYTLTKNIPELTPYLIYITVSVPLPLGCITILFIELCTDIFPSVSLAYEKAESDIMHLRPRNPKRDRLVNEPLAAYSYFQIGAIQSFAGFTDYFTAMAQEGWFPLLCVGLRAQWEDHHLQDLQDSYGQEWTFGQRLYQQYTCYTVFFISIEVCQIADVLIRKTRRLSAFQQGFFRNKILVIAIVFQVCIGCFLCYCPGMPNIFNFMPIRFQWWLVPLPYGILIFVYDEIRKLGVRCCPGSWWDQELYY

Target: T1, proton pumps in the stomach (Homo sapiens, UniProt P20648)
T1 construct: host or cells: stomach in vivo (patients)
Settings: cited from earlier work

## COc1ccc2[nH]c([S+]([O-])Cc3ncc(C)c(OC)c3C)nc2c1 (centres unmarked) [Omeprazole]
Zollinger-Ellison syndrome
  serum gastrin level: 700 µg/mL
Increase from 15 μg/ml
  serum gastrin level after proton pump inhibition: over 200 μg/ml
